Data published in paper PMC10163288.
The other results are listed elsewhere or left out.

B1: il2ra_site1_3nfp_normal_mot_HHH_b1_01080_af2_000000019_0001_3_16_H_._HHH_b2_03166_af2_0001_0000500008_0000001_1_af2pred_0001_af2pred_1 (protein)
chain: SSSSTKEAFEIAELAREIAEELGVDEKEIRLAAELALKLVARGVSEEEIEEILRELLEELSSSSS
B2: il2ra_site2_3nfp_normal_mot_HHH_b2_07498_000000057_0001_1_14_H_._HHH_b2_05183_0001_0000300021_0000001_0 (protein)
chain: SSSSDREEVEELLKEAEELLEEGNPEEAFQVVQKASELAAKLNDPELARAVLELYELLKRSSSSS
B3: il2ra_site2_3nfp_sap_25_mot_32bc48042d8ba3d1c0734e77886dd373_0001_1_000000143_0001_36_50_H_._HHH_b2_00933_0001_0001000014_0000001_0_0001_af2pred_0001_1_af2pred_ … (protein)
chain: SSSSSEEEEKIRKALEAVREAVERGDEELFRKLAIEAAEIIRENNDAEAFFILAELWRELGSSSS
B4: il2ra_site2_2erj_sap_26_mot_89dc1dc23437faef961419e82e151d9c_0001_000000098_0001_15_32_H_._HHH_b2_02643_af2_0001_0000300022_0000001_0_0001 (protein)
chain: SSSSDAIEELAEALIRTLERAGDPESAREVQELLEELEEKGDPRVEEELARLIWELMREHFSSSS
B5: il2ra_site2_3nfp_normal_mot_HHH_b1_00660_af2_000000090_0001_40_57_H_._HHH_b2_02632_0001_0000100016_0000001_0_af2pred_0001_af2pred_1_swapped (protein)
chain: SSSSSEEERVKRLLEEAEELKKEGDEEEVRKLLAEASLIAYEAGDFELFALISEFIERLLSSSSS
B6: il2ra_site1_3nfp_sap_12_mot_HHH_b2_07201_af2_000000232_0001_1_20_H_._HHH_b2_06321_0001_0000100001_0000001_1_0001_af2pred_0001_af2pred (protein)
chain: SRAELFAEAVEEIAELAGVPHVEVEVSNGEVRVTFEGDSKRAKIASRFVEELARLFGIKVEVEVR
B7: il2ra_site1_1z92_normal_mot_HHH_b2_02540_000000162_0001_1_16_H_._HHH_b1_06172_0001_0000600037_0000001_0 (protein)
chain: SSSSSKYEKSIRWALRLLEAAARTRNERLFEFVVEQIRLLVKQNNNEELEEELERLEREFRSSSS
B8: il2ra_site1_3nfp_normal_mot_HHH_b2_03135_af2_000000097_0001_42_55_H_._HHH_b2_04342_af2_0001_0000300016_0000001_0 (protein)
chain: SSSSDDWVRRLLEIDREIIELIREGDKEEARKLVEELEELAEELNDKIALRLAEQLKENLNSSSS
B9: il2ra_site1_2b5i_normal_mot_2cbe48e66a1f39b3fed734b245ab0a04_0001_000000015_0001_17_31_H_._HHH_b2_02186_0001_0000300010_0000001_0_af2pred_dldesign_0_af2pred (protein)
chain: SSSSSSNRARVEALLERARKLEDPFELSKVLSEALFVARQAKDEELIARVKAVWEELASSSSSSS
B10: il2ra_site2_2erj_sap_25_mot_HHH_b1_06138_000000259_0001_40_57_H_._HHH_b1_05292_0001_0000200002_0000001_0_0001 (protein)
chain: SSSSSEDLHEAYEIADRINELLQRGDPEEVEELLKELERLAERLKSPNLEEIVEWLRKLLDSSSS
B11: il2ra_site1_1z92_sap_14_mot_HHH_b1_00199_000000288_0001_44_57_H_._bd3138152b83fbdbd115440ed3e3a24f_0001_af2_0001_0000400048_0000001_0_0001 (protein)
chain: SVEEDIRAALKLGLSPENIVKALLRALAWVHKIPPEEAKELLEELLKELNTPVAEEVLEALKELK
B12: il2ra_site2_2erj_normal_mot_HHH_b1_08185_000000063_0001_41_55_H_._HHH_b1_04971_af2_0001_0000600015_0000001_0 (protein)
chain: SSSSSDSAEEALELAKEAYEKGDRSEVELILRYLELSLEDANDPRVEEAYELVEELLEELSSSSS
B13: il2ra_site1_3nfp_normal_mot_HHH_b1_03236_000000173_0001_17_33_H_._HHH_b2_01770_0001_0000100006_0000001_0_af2pred_0001_af2pred_swapped (protein)
chain: SSSSDYKELQELSREVEKLLKHGDKEEAEKVLEELEELAEKINSRIARLFVERLKRKLEELSSSS
B14: il2ra_site1_1z92_normal_mot_HHH_b1_05003_000000111_0001_1_20_H_._HHH_b1_04654_af2_0001_0000400010_0000001_0_af2pred_0001_af2pred_1 (protein)
chain: SSSSSEHERIRELIERVDELLRRGNDEEAEKLLEELKELAEETNSPVLKRLIEAAEELVELSSSS
B15: il2ra_site2_3nfp_sap_17_mot_HHH_b1_06238_000000047_0001_1_16_H_._HHH_b2_02195_0001_0000300040_0000001_0_0001 (protein)
chain: SEEEKEEIERLEKELREAVERNDKELIKEIIREIAHFVARHKDDPDAFELFALANEARLAVLEAS
B16: il2ra_site1_3nfp_normal_mot_HHH_b1_05523_000000027_0001_1_19_H_._HHH_b1_02072_af2_0001_0000100004_0000001_0_af2pred_0001_af2pred_1 (protein)
chain: SSSSSREEIKELLRKALELFENGNPEEAKRLLEEAKELAEELGDEVTVKFIEVLLKIVEGSSSSS
B17: il2ra_site1_3nfp_sap_20_mot_HHH_b2_02552_af2_000000235_0001_1_20_H_._HHH_b2_06600_0001_0000200021_0000001_0_0001 (protein)
chain: SAEQFERDIKRMGDPEALEALEQAVELLERLGVPPAEAAWIFIRLAVKLGDPEEALEVVEERVRK
B18: il2ra_site2_3nfp_normal_mot_HHH_b2_08110_af2_000000162_0001_23_39_H_._HHH_b1_00283_af2_0001_0000200024_0000001_1 (protein)
chain: SSSSDEEARKLAEEAEELAKQGDDEEVRKLLRRAVQIAWELRNHELFAFVADVATKLYELKSSSS

What follows are binders tested against il2ra, P01589 (assay: yeast display titration).

Apparent Kd, inactive:
B1 no binding seen
B2 no binding seen
B3 no binding seen
B4 no binding seen
B5 no binding seen
B6 no binding seen
B7 no binding seen
B8 no binding seen
B9 no binding seen
B10 no binding seen
B11 no binding seen
B12 no binding seen
B13 no binding seen
B14 no binding seen
B15 no binding seen
B16 no binding seen
B17 no binding seen
B18 > 0.684 µM

Four consecutive records out of the list so far:
Apparent Kd, inactive:
B10 no binding seen
B11 no binding seen
B12 no binding seen
B13 no binding seen
